# Screen size: about 200,000 compounds; about 25 (0.01%) were called active. Inconclusive results, whose numbers are uncertain, are shown with a selection of clear calls. Calls come from the whole dose curve; as a rule, active = well fitted inhibition curve with a large enough effect in the signal ratio, with a control signal flat (not every such curve was filed as active); inconclusive = small, poorly fitted or top-dose-only effect, or effect the other way, or a change in a side signal; inactive = flat fitted curve, though single readings scatter; the % refers to the signal ratio. Potencies beside an inconclusive call are fits to weak or partial responses and may not hold up.
# Assay: qHTS Assay for Modulators of Lamin A Splicing
# Settings: HeLa LMNA splicing GFP/RFP minigene ratio, 48 h; ratio change, negative = inhibition: at 46.1 µM (top of the series) unless noted
# Outline: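 S3 HeLa stable clones carrying a lamin A-EGFP splicing minigene plus DsRed2 were seeded at 600 cells/well in Opti-MEM with 2% FBS, pin-dosed and incubated 48 h at 37°C. Acumen cytometry (488 nm) gave the GFP/RFP total-intensity ratio.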
# % is set by controls: 0 for no effect and ±100 for the full control effect; potency is the fitted concentration of half-maximal effect.
Structure (SMILES),"ratio change, negative = inhibition",Potency
COCCOC(=O)C1=C(C)N(c2ccccc2)C(=S)NC1c1ccccc1C(F)(F)F (stereo not given),inactive: -13.9% [at 9.22 µM],
CC1CCCCN1S(=O)(=O)c1ccc(N(C(=O)c2cnccn2)C(C(=O)NC2CCCC2)c2cccs2)cc1 (stereo not given),inactive: -7.93%,
CCc1ccc(NC(=S)N(Cc2ccccc2)Cc2ccccn2)cc1,inactive: -2.6% [at 9.22 µM],
Cc1cccc(NC(=S)N=Nc2c(O)n(C)c3ccc(S(=O)(=O)N4CCOCC4)cc23)c1,inconclusive: -8.04%,
O=C(NC(=S)N(Cc1ccccc1)c1ccccn1)C1CC1,inactive: -4.75%,
COc1ccc(N2CC(NC(=O)c3ccc(S(=O)(=O)N4CCCCC4)cc3)CC2=O)cc1OC (stereo not given),inactive: 17.1% [at 46 µM],
Cc1ccccc1CN1CCN(CC(=O)NCc2ccccc2Cl)C1=O,inactive: 8.29% [at 46 µM],
O=C(c1cc(=O)c2ccccc2o1)N1CCCc2ccccc21,inactive: 7.61%,
O=C(O)COc1ccc2c3c(c(=O)oc2c1)CCCC3,inconclusive: 8.81% [at 46 µM],
COC(=O)Cn1c(CCS(=O)(=O)c2ccc(Cl)cc2)nc2ccccc21,inconclusive: -41.9%,
Nc1ccccc1NC1CCCCC1,inconclusive: -18.7% [at 46 µM],
COc1ccc(OC)c(NS(=O)(=O)c2ccc(N3CCCC3=O)cc2)c1,inconclusive: -20.5%,
O=c1cc(-c2ccccc2)nc2nc(SCc3ccccc3)[nH]n12,inactive: -4.3%,
COc1ccc(NC(=O)Nc2ccc(C(C)C)cc2)cc1,inconclusive: -28% [at 46 µM],
O=C(c1cc(-c2ccccc2)on1)N1CCN(Cc2ccc3c(c2)OCO3)CC1,,"inconclusive: 35.5 µM [fluorescent, single point]"
CC(C)c1ccc(NC(=O)CSc2nc(=O)n(Cc3cccnc3)c3c2CCC3)cc1,inconclusive: -17.5% [at 46 µM],
CCCCN(CCCC)CCNC(=O)c1cc(=O)[nH]c2ccc(S(=O)(=O)N3CCCCCC3)cc12,inconclusive: -5.78% [at 46 µM],
COc1ccc(-n2c(O)c(/C=N/Nc3nc(C)cc(C)n3)c3ccccc3c2=O)cc1OC,,"inconclusive: 35.5 µM [inhibitor, single point]"
O=c1[nH]c(NCCO)nc2c1C1(CCCCC1)Cc1ccccc1-2,inactive: 19.2%,
CC1Cc2cc(-c3csc(NC(=O)Cc4ccccc4)n3)ccc2N1S(C)(=O)=O (stereo not given),inconclusive: -21.1%,
N#Cc1cc(N)c(Nc2ccccc2)cc1C#N,,"inconclusive: 35.5 µM [fluorescent, single point]"
CC(C)(C)CC(C)(C)c1ccc(OCCO)cc1,inconclusive: -13.5%,
Cc1ccc2oc(Nc3nc(-c4ccccc4)cc(=O)[nH]3)nc2c1,inconclusive: -39.2% [at 46 µM],
CCOC(=O)c1cccc(N)c1,inconclusive: -24.3%,
C#CCNC(=O)c1cccn1-c1ncc(C(F)(F)F)cc1Cl,inconclusive: -20.4% [at 9.22 µM],
Cc1ccc(NC(=O)CNC(=O)OCc2ccccc2)cc1C,inconclusive: 13.6% [at 46 µM],
COC(=O)c1ccc(-c2ncc(-c3cccc4ccccc34)o2)cc1,inconclusive: -9.71%,

Structure (SMILES),"ratio change, negative = inhibition",Potency
O=C(NCc1ccccc1Cl)C1CCN(S(=O)(=O)N2CCCCCC2)CC1,,"inconclusive: 35.5 µM [fluorescent, single point]"
Oc1cccc(C(Nc2nccs2)c2ccc3cccnc3c2O)c1 (stereo not given),,"inconclusive: 31.6 µM [cytotoxic, single point]"
O=C(Nc1ccc(Cl)c(Cl)c1)Nc1ccccc1C(=O)O,inconclusive: -44.2% [at 46 µM],
CCOC(=O)c1c(C)sc2c1N(C(=O)CN(CC)CC)c1cc(Cl)ccc1S2,inconclusive: -1.31%,
COc1cc2ccnc(Cc3cccc(OC)c3OC)c2cc1OC,inconclusive: -19.9% [at 46 µM],
Cc1cc(C)c2nc(NC(=O)c3ccc(OCC4CCCO4)cc3)sc2c1 (stereo not given),inconclusive: -3.37%,
CCCNCC(O)COc1ccccc1C(=O)CCc1ccccc1 (stereo not given),inconclusive: -40.8%,
Cc1ccc(CCNC(=O)c2ccc(CSCc3ccccc3C)o2)cc1,inconclusive: -13.2% [at 46 µM],
Fc1cccc(-c2cc3nc4c(c(NCc5ccco5)n3n2)CCCC4)c1,inconclusive: -7.7%,
COc1ccc(C(=O)Nc2nc3ccccc3[nH]2)cc1S(=O)(=O)N1CCOCC1,inconclusive: 3.6% [at 46 µM],
N#CCCCn1c(=O)oc2ccccc21,inconclusive: 6.52% [at 46 µM],
Cn1c(=O)c2c(nc(N3CCNCC3)n2Cc2cccc3ccccc23)n(C)c1=O,inconclusive: -12.2%,
COc1ccc2oc(=O)c(C(=O)N3CCN(c4ccc(F)cc4)CC3)cc2c1,,"inconclusive: 17.8 µM [fluorescent, single point]"
CC1=C(C(=O)OCc2ccccc2)C(c2ccc(C(F)(F)F)cc2)NC(=O)N1CCCCCC(=O)O (stereo not given),inconclusive: 12.6%,
CSc1nc2c([nH]c3ccccc32)c(=O)n1-c1ccc(C)cc1,inactive: -2.62% [at 46 µM],
COc1cccc(-c2nc(=S)c3c(n2Cc2ccco2)CCCC3)c1,inconclusive: 7.58%,
COc1ccc(-c2nc3scc(CCNC(=O)Cc4ccc(F)cc4)n3n2)cc1,inconclusive: -5.09% [at 46 µM],
Cc1ccc(-n2ncc(C(=O)Nc3c(Cl)cccc3Cl)c2C2CCNCC2)cc1,inconclusive: -26.3% [at 46 µM],
COc1ccc(OCCn2c(=O)sc3ccccc32)cc1,,"inconclusive: 6.31 µM [activator, partial curve, poor fit]"
COc1ccc(N(C(=O)C(C)C)S(=O)(=O)c2cccc([N+](=O)[O-])c2)cc1,inconclusive: -6.83% [at 46 µM],
CCNC(=S)NNC(=O)c1cccc(Br)c1,inconclusive: 9.48%,
COc1cc2c(cc1NC(=O)c1cccc(F)c1)CCCC2,,"inconclusive: 31.6 µM [fluorescent, single point]"
Cn1cnc([N+](=O)[O-])c1S(=O)(=O)c1cccc(Cl)c1,,"inconclusive: 35.5 µM [falling, single point]"
CC(C)c1nnc(NC(=O)CSc2nc3ccccc3s2)s1,inconclusive: -4.26%,
COc1ccc(N2CCN(C(c3ccccc3)c3nnc(-c4ccccc4Cl)o3)CC2)cc1 (stereo not given),inconclusive: -7.52% [at 46 µM],
Cc1ccc(CS(=O)(=O)Cc2ccc(C(=O)NCCc3ccc(Cl)cc3)o2)cc1,inconclusive: 3.46% [at 46 µM],
Cc1cc(=O)[nH]c(-n2nc(C)cc2C)n1,,"inconclusive: 35.5 µM [cytotoxic, single point]"

Structure (SMILES),"ratio change, negative = inhibition",Potency
CCn1c(N)c(C(=O)NCCCOC)sc1=S,inactive: -2.16%,
O=C(CCn1c(=O)c2ccccc2n(Cc2cccc([N+](=O)[O-])c2)c1=O)N1CCc2ccccc2C1,inactive: -4.95%,
NC(=O)CSc1nccn1Cc1ccc2c(c1)OCO2,inconclusive: 5.16% [at 46 µM],
C/C(CCc1ccc2c(c1)OCO2)=N\NC(=S)NC(C)C,,"inconclusive: 35.5 µM [rising, single point]"
CC(C)OCC1CC(CC(=O)Nc2ccc([N+](=O)[O-])cc2)C(=O)O1 (stereo not given),inconclusive: 12.7% [at 46 µM],
COc1ccccc1/C(C)=N/NC(=S)NCc1ccccc1,inconclusive: 62.8% [at 46 µM],
CCN1C(=O)c2ccccc2Sc2ccc(NC(=O)c3ccc(C)c(F)c3)cc21,inconclusive: -43.9% [at 46 µM],
S=C(NCC1CCCCC1)Nc1ccc(Oc2ccccc2)cc1,inconclusive: -40.7%,
O=C(COC(=O)c1ccccc1Br)NCCC1=CCCCC1,inactive: -5.12% [at 46 µM],
O=C(Nc1ccc2oc(-c3ccc(Cl)c(Cl)c3)nc2c1)c1ncn[nH]1,inconclusive: 42%,
O=C1/C(=C/Nc2ccc3c(c2)OCO3)CCc2ccccc21,inactive: -0.983%,
COc1ccc(/C=N/N2CCN(C)CC2)cc1O,inactive: 0.177%,
COc1ccc(-c2cc(C(=O)N3CC4(C)CC3CC(C)(C)C4)no2)cc1OC (stereo not given),inactive: 8.61%,
c1ccc(CNC23CC4CC(CC(C4)C2)C3)nc1,inconclusive: 5.36% [at 46 µM],
CCCS(=O)(=O)NCCc1csc2nc(-c3ccc(OC)cc3)nn12,inactive: 10.6% [at 46 µM],
Cc1cc(-c2ccc(C)c(S(=O)(=O)NCc3ccc(Cl)cc3)c2)on1,inconclusive: -10% [at 46 µM],
CCC(=O)Nc1ccc2nc(SCC(=O)N3CCc4ccccc43)sc2c1,inconclusive: 25.4% [at 46 µM],
C/C(=N\NC(=O)c1c[nH]c2ccccc12)c1ccccn1,,"inconclusive: 6.31 µM [falling, full curve]"
Cc1cc(C(=O)CSc2nnc(-c3ccccc3)o2)c(C)n1CC1COc2ccccc2O1 (stereo not given),inconclusive: 200%,
CC[n+]1ccc(C)c2cc(S(=O)C(F)(F)F)ccc21 (stereo not given),inconclusive: -2.51%,
CCOC(=O)c1cnc(SC)nc1Oc1cccc(NC(=O)c2ccc(Cl)cc2)c1,inactive: 0.0413%,
CCc1ccc(NC(=O)C2CCCN(S(=O)(=O)c3c(C)[nH]c(=O)[nH]c3=O)C2)cc1 (stereo not given),inconclusive: 23.4% [at 46 µM],
Cc1cc(=O)n2c(C(=O)Nc3ccc(C(=O)OC(C)C)cc3)c(C(=O)Nc3ccccc3)sc2n1,,"inconclusive: 35.5 µM [cytotoxic, single point]"
CNC(=O)c1cc2n(n1)CCCN(Cc1ccc(F)cc1)C2=O,inconclusive: 15.3% [at 46 µM],
COc1ccc(C)cc1NC(=O)C(c1ccccc1)N1CCNC(=O)C1 (stereo not given),inactive: -17.4% [at 46 µM],
COc1ccc(-c2[nH]ncc2CN(C)Cc2cnccn2)c(OC)c1,inconclusive: 34.8% [at 46 µM],

# Complete entries as entered above.
# `CCCS(=O)(=O)NCCc1csc2nc(-c3ccc(OC)cc3)nn12` is listed as ratio change, negative = inhibition: inactive: 10.6% [at 46 µM]
# `CCc1ccc(NC(=O)C2CCCN(S(=O)(=O)c3c(C)[nH]c(=O)[nH]c3=O)C2)cc1` (stereo not given) is listed as ratio change, negative = inhibition: inconclusive: 23.4% [at 46 µM]
# `CCn1c(N)c(C(=O)NCCCOC)sc1=S` is listed as ratio change, negative = inhibition: inactive: -2.16%
# `c1ccc(CNC23CC4CC(CC(C4)C2)C3)nc1` is listed as ratio change, negative = inhibition: inconclusive: 5.36% [at 46 µM]
